# Melanoma cell counts after drug treatment

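Human melanoma cell lines in 1,536-well plates were treated with two drugs together for 72 h, then fixed, stained and imaged. Each value is the count of nuclei relative to DMSO-treated wells, in %, so that 100 equals the control. Every drug was used at one fixed concentration, the lower of two screened (a fifth of the higher). No replicate spread is given; individual values may be noisy.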
An unselected part of the screen is shown.

All values are for the listed drug together with JZL184 (1 µM): O=C(Oc1ccc([N+](=O)[O-])cc1)N1CCC(C(O)(c2ccc3c(c2)OCO3)c2ccc3c(c2)OCO3)CC1

| # | Partner | COLO 792 |
|---|---|---|
| 1 | COc1cc2c(Oc3ccc4[nH]c(C)cc4c3F)ncnc2cc1OCCCN1CCCC1 at 0.4 µM | 87.1 |
| 2 | Cn1cc(/C=C2\C(=O)Nc3cccnc32)c2ccccc21 at 0.4 µM | 94.4 |
| 3 | N#Cc1c(O)c2c(-c3ccc(-c4ccccc4O)cc3)csc2[nH]c1=O at 2 µM | 90.4 |
| 4 | C/C(O)=C(\C#N)C(=O)Nc1cc(Br)ccc1Br at 2 µM | 91.4 |
| 5 | CN(C)S(=O)(=O)c1ccc2c(c1)/C(=C/c1cc3c([nH]1)CCCC3)C(=O)N2 at 0.4 µM | 96.6 |
| 6 | O=C(Nc1ccccc1)c1cc([N+](=O)[O-])ccc1Cl at 2 µM | 97.8 |
| 7 | CCc1ccc(CCOc2ccc(CC3SC(=O)NC3=O)cc2)nc1 (stereo not shown) at 2 µM | 98.1 |
| 8 | c1cc(-c2cnn3cc(-c4ccc(OCCN5CCCCC5)cc4)cnc23)ccn1 at 0.4 µM | 98.5 |
| 9 | C#Cc1cccc(Nc2ncnc3cc(OCCOC)c(OCCOC)cc23)c1 at 0.8 µM | 83.4 |
| 10 | Cc1cc(N2CCOCC2)cc2[nH]c(-c3c(NC[C@@H](O)c4cccc(Cl)c4)cc[nH]c3=O)nc12 at 0.2 µM | 85.1 |
| 11 | Oc1nc(-c2ccc(C(F)(F)F)cc2)nc2c1CSCC2 at 2 µM | 84.3 |
| 12 | O=c1cc(-c2cccc3c2Sc2ccccc2S3)oc(N2CCOCC2)c1 at 1 µM | 88.5 |
| 13 | O=C(Nc1cccc(Cl)c1)Nc1ncc(CCNc2ncnc3ccsc23)s1 at 0.0008 µM | 98.6 |
| 14 | COc1cc2ncnc(Nc3ccc(Oc4ccccc4)cc3)c2cc1OC at 2 µM | 107 |

2 of the entries, repeated:

{"partner": "O=C(Nc1ccccc1)c1cc([N+](=O)[O-])ccc1Cl at 2 µM", "COLO 792": 97.8}
{"partner": "N#Cc1c(O)c2c(-c3ccc(-c4ccccc4O)cc3)csc2[nH]c1=O at 2 µM", "COLO 792": 90.4}

Data from the primary screen of doi:10.1371/journal.pone.0140310, rounded.